# Laboratory results published in PubChem BioAssay AID2685 (National Center for Advancing Translational Sciences (NCATS), 2010).
# About 2,100 (0.66%) of roughly 320,000 compounds were called active. Inconclusive results, whose numbers are uncertain, are shown with a selection of clear calls. The call rests on the fitted dose curve; in most records, active means well fitted inhibition curve with a large enough effect in the signal ratio, with a control signal flat (not every such curve was filed as active); inconclusive means small, poorly fitted or top-dose-only effect, or effect the other way, or a change in a side signal; inactive means flat fitted curve, though single readings scatter; the % refers to the signal ratio. Potencies of inconclusive entries are doubtful fits and often do not repeat.
# Experiment: qHTS Assay for Lipid Storage Modulators in Drosophila S3 Cells
# Conditions: BODIPY lipid droplet fluorescence, 18-24 h, cells fed with added oleic acid; lipid storage change, negative = inhibition: at 46.1 µM (top of the series) unless noted
# Summary of the method: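 Drosophila S3 cells got compounds at several concentrations plus oleic acid (400 uM solution). Laser-scanning cytometry with 488 nm excitation read lipid droplets at 500-530 nm and cells at 575-640 nm. Percent activity was relative to 20 uM Triacsin C.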
# On the % scale 0 is the no-effect control and ±100 the full control effect; potency means the concentration at half of the fitted maximal effect.
SMILES,"lipid storage change, negative = inhibition",Potency
CC(=O)Nc1cc(C(=O)N2CCCC2)ccc1Sc1ccc(C)cc1,inconclusive: 11.2%,
CCn1cc(SCC(=O)NCC2CCCO2)c2ccccc21 (configuration not stated),inactive: -5.87%,
CCc1noc(C)c1C(=O)N(CCOC)c1c(N)n(CC(C)C)c(=O)[nH]c1=O,inconclusive: 17.9%,
COc1ccc(NC(=O)CCS(=O)(=O)c2ccc3nc(C)sc3c2)cc1OC,,"inconclusive: 29.1 µM [activator, single point]"
C/C(=N\NC(=O)c1cc(-c2ccc(Br)s2)[nH]n1)c1ccncc1,,"inconclusive: 6.51 µM [activator, single point]"
CC(=O)c1ccc(OCc2cc(=O)n3ccsc3n2)cc1,inconclusive: 20.3%,
COC(=O)Cn1nc(-c2ccccc2)c2ccccc2c1=O,inconclusive: 13.4%,
O=C(Cc1ccccc1)NNS(=O)(=O)c1ccccc1[N+](=O)[O-],,"inconclusive: 18.4 µM [activator, single point]"
CCCCOc1ccc(C(=O)NCC(=O)NC2CC2)cc1,,"inconclusive: 0.058 µM [rising, full curve, poor fit]"
Cc1nc2ccc([N+](=O)[O-])cc2c(=O)n1Cc1ccc(F)cc1,,"inconclusive: 11.6 µM [falling, partial curve]"
O=[N+]([O-])c1ccc(S(=O)(=O)N/N=C/c2ccc3c(c2)OCO3)cc1,inconclusive: 22.6%,
O=C(CSc1nc2ccc(Nc3nc(N4CCOCC4)nc(N4CCOCC4)n3)cc2s1)N1CCOCC1,inconclusive: 133%,
C/C(=N\NC(=O)c1nn(C)cc1Cl)c1ccncc1,inconclusive: 21.5%,
O=C(Nc1cccc2ccccc12)N1CCN(c2ccc(F)cc2)CC1,,"inconclusive: 8.2 µM [activator, partial curve]"
CN(C)c1cc(Nc2cccc(O)c2)c([N+](=O)[O-])c2nonc12,inconclusive: 6.29%,
COc1cc(-c2ccc3c(=O)c4ccccc4n(C)c3c2)cc(OC)c1OC,inconclusive: -80.1%,
COc1cccc(N2CC(NS(=O)(=O)c3ccc4ccccc4c3)CC2=O)c1 (configuration not stated),inconclusive: 62.1%,
COCCCNc1nc2nonc2nc1NCCSC,inconclusive: 35.6%,
O=C(COC(=O)c1ccccc1C(=O)c1ccccc1)NCCc1ccc(Cl)cc1Cl,,"inconclusive: 20.6 µM [falling, single point]"
O=C(Nc1ccccc1)c1ccc(-c2ccccc2Cl)o1,,"inconclusive: 14.6 µM [activator, single point]"
N#Cc1c(-c2ccc3c(c2)OCO3)cc[nH]c1=O,inactive: 14.1%,
COC(=O)Cn1c(=NC(=O)c2cc(-c3cccs3)nc3ccccc23)sc2cc(S(N)(=O)=O)ccc21,inconclusive: 36.4%,
CC1=NC(=O)C(N=Nc2cccc(C(=O)O)c2)N1c1ccccc1 (configuration not stated),,"inconclusive: 0.13 µM [falling, full curve, poor fit]"
Cc1cccc(N(C(=O)Cn2nnc(-c3ccc(F)cc3)n2)C(C(=O)NC(C)(C)C)c2ccncc2)c1 (configuration not stated),,"inconclusive: 0.0046 µM [falling, full curve, poor fit]"

SMILES,"lipid storage change, negative = inhibition",Potency
CCOC(=O)C1CCCN(C(=O)COC(=O)C2=COCCO2)C1 (configuration not stated),,"inconclusive: 6.51 µM [falling, single point]"
COc1cccc(-c2c(C(=O)N/N=C/c3ccoc3)nnn2-c2nonc2N)c1,inconclusive: -15%,
CCC(C(=O)Nc1ccc(C(=O)Nc2ccccc2C(=O)O)cc1)c1ccccc1 (configuration not stated),,"inconclusive: 29.1 µM [activator, single point]"
COc1ccc(S(=O)(=O)NCC(=O)NCc2cc(=O)n(C)c(=O)n2C)cc1,inconclusive: 31%,
CCC(C(=O)NC1CCCC1)N(Cc1ccccc1Cl)C(=O)c1snc(C(N)=O)c1N (configuration not stated),,active: 0.58 µM
CCCc1ccc2oc(C(=O)N3CCN(C4CCS(=O)(=O)C4)CC3)c(C)c2c1 (configuration not stated),,"inconclusive: 2.31 µM [activator, partial curve]"
O=C(/C=C/c1cccs1)c1cc(Br)ccc1OC(=O)N1CCOCC1,,"inconclusive: 29.1 µM [falling, single point]"
COC(=O)C1=C(C)N(Cc2ccccc2)C(=S)N[C@H]1c1ccccc1,,"inconclusive: 6.51 µM [activator, full curve]"
COc1ccc(CC(NC(C)=O)C(=O)NC2CCN(C(=O)NCc3ccccc3)CC2)cc1 (configuration not stated),inconclusive: 51.4%,
COCCCNCC#CCOc1ccc(OC)cc1,inconclusive: -2.79%,
CCN(CC)c1ccc(Nc2nc(-c3cccnc3)cs2)cc1,inconclusive: -75.8%,
COc1ccc(C(C)(C)C)cc1NC(=O)COC(=O)c1ccc([N+](=O)[O-])o1,inconclusive: -60.2%,
O=C1NC(Cc2ccccc2)C(=O)N1CC(=O)N1CCCc2ccccc21 (configuration not stated),inconclusive: 7.06%,
COc1ccc(C(=O)N=c2sc3ccccc3n2C)cc1,inconclusive: 19.9%,
O=C(CSc1nc2c(oc3ccccc32)c(=O)n1CC1CCCO1)NCc1ccccc1 (configuration not stated),,"inconclusive: 10.3 µM [falling, partial curve]"
Cc1cc(C)n2nc(C(=O)OC(C)C(=O)c3ccccc3)nc2n1 (configuration not stated),inconclusive: -25%,
Cc1cc(NC(=O)CSCC(=O)OCC(=O)c2cccc(Br)c2)no1,inconclusive: 0.222%,
CCN(CC(=O)Nc1ccccc1C(F)(F)F)C(=O)CN1C(=O)NC(C)(c2ccccc2)C1=O (configuration not stated),,"inconclusive: 29.1 µM [falling, single point]"
CCc1ccc(/C=C2\CN(CC)Cc3c2nc2ccccc2c3C(=O)O)cc1,inconclusive: 5.49%,
O=C(CNS(=O)(=O)c1ccc(Br)s1)NCc1ccc(F)cc1,inconclusive: -14%,
CCC(=O)Nc1ccc(-c2ccc(NC(=O)CC)c(OC)c2)cc1OC,inconclusive: 6.42%,
COc1ccc(CNC(=O)CN2CCN(S(=O)(=O)c3ccccc3)CC2)cc1,,"inconclusive: 1.3 µM [activator, full curve, poor fit]"
CCSc1ccc2c(c1)N(CCCN1CCN(C)CC1)c1ccccc1S2,inconclusive: -0.19%,
